The supplement of paper PMC10849652
This is one part of the list.

Amino acid sequences for entries named in this document (tags omitted). A change or cut given only in a name is not applied to a line headed by its entry.
UniProt Q9Y6G5, whole entry, looked up: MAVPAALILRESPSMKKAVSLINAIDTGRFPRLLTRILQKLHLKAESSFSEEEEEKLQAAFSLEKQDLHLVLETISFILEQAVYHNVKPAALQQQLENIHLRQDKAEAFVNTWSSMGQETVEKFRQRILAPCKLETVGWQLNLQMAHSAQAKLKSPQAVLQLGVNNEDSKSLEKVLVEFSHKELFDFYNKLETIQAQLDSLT
UniProt Q12887: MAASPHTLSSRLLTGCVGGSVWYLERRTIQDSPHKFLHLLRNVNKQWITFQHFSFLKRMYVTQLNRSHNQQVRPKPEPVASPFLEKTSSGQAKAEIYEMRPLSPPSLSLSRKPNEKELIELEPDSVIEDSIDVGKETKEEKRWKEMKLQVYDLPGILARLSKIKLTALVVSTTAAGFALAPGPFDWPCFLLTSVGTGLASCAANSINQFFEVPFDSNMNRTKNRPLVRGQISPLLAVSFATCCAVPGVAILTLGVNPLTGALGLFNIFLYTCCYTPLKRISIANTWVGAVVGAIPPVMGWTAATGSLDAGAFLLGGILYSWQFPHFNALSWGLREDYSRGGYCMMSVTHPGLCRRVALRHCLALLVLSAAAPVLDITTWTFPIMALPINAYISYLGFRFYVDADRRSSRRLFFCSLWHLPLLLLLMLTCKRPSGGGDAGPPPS
UniProt P53618: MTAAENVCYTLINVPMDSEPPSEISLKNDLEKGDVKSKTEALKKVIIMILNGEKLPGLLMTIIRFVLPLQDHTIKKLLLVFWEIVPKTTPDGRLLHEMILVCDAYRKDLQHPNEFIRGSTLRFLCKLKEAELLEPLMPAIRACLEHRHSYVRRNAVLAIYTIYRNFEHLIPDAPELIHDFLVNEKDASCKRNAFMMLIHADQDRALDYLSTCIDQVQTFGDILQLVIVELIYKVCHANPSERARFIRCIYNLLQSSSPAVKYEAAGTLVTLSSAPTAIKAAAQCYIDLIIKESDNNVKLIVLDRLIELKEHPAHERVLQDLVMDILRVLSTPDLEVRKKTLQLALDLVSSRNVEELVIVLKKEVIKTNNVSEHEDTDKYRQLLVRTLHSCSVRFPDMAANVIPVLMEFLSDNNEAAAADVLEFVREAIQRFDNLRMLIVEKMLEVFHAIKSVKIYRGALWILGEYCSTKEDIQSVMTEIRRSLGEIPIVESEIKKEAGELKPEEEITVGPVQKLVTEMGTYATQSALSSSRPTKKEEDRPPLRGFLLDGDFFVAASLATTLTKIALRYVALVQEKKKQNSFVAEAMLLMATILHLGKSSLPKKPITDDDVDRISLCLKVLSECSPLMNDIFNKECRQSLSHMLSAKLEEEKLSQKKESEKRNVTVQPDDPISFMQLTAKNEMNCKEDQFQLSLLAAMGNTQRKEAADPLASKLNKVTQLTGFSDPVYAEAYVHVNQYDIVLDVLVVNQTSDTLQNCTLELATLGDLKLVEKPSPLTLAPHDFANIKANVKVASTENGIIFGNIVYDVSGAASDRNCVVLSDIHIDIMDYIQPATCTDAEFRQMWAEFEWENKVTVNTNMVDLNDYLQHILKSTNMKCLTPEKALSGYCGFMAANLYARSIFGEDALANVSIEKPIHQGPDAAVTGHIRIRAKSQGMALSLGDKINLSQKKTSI
UniProt Q9NQ92: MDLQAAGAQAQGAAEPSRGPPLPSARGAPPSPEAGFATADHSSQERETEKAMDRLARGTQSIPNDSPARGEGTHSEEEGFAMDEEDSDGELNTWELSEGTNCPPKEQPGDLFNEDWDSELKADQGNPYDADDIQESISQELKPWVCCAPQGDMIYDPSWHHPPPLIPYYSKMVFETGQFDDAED
UniProt P53621: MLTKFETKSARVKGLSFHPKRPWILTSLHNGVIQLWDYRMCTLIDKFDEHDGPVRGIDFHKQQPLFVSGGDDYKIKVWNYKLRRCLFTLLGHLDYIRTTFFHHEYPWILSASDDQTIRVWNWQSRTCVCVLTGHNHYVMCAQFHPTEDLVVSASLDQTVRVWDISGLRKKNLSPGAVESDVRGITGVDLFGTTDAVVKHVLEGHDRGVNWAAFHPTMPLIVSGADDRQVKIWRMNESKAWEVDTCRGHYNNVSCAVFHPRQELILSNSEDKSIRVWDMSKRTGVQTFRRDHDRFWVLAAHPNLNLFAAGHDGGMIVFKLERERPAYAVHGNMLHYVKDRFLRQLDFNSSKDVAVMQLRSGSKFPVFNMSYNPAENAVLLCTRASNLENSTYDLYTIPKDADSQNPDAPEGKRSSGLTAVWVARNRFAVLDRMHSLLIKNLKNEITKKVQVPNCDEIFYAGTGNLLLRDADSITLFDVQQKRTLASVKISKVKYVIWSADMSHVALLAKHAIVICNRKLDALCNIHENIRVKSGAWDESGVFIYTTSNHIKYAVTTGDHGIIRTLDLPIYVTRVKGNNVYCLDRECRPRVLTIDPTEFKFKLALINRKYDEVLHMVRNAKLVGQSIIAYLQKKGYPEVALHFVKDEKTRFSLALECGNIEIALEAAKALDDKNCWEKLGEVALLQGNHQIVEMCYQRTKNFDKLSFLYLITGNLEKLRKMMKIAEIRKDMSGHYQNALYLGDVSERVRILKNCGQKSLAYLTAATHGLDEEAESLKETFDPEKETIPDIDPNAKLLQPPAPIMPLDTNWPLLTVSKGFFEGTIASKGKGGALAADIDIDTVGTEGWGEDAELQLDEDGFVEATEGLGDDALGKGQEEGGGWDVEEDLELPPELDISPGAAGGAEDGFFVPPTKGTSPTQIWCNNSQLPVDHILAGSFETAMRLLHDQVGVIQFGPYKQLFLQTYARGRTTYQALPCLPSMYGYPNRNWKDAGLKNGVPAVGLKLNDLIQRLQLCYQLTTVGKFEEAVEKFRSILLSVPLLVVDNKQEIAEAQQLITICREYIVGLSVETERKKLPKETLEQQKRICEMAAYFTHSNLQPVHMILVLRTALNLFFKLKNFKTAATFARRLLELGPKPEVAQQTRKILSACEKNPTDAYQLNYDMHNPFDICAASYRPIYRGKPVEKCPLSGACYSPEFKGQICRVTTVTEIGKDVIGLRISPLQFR
UniProt Q9Y2Z9: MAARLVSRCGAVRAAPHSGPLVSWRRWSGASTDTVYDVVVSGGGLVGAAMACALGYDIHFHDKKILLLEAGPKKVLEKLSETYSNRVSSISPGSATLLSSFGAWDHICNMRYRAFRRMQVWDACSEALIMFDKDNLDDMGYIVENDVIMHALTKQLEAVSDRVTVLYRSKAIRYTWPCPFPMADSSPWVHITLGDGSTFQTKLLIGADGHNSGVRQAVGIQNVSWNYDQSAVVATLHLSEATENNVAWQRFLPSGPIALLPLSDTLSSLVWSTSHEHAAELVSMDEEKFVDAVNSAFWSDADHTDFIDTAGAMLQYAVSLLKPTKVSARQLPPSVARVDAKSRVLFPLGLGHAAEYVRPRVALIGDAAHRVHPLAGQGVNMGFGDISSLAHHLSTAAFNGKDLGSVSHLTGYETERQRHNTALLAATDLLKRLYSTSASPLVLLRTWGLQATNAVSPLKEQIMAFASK
UniProt P31146: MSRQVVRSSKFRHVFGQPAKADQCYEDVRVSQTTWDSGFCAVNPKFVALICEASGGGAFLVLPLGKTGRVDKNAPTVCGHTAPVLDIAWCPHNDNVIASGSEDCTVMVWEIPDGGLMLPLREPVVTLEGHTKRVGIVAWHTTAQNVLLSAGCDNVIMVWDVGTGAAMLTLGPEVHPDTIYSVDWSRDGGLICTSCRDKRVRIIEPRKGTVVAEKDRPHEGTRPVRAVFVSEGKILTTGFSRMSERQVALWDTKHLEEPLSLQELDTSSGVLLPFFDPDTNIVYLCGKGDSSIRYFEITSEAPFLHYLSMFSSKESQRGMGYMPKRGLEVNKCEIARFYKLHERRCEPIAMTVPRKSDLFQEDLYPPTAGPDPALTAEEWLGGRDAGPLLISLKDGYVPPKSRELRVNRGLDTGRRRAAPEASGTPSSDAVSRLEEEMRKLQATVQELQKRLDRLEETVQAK
UniProt P14406, whole entry, looked up: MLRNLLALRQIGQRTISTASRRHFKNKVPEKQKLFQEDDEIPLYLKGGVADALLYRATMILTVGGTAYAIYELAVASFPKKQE
UniProt Q9P000, whole entry, looked up: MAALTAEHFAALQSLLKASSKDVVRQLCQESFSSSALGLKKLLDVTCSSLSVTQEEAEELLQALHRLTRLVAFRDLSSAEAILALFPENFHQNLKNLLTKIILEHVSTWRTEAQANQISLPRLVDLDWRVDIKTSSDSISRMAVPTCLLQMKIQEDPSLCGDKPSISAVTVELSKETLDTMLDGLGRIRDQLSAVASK
UniProt Q9UBF2: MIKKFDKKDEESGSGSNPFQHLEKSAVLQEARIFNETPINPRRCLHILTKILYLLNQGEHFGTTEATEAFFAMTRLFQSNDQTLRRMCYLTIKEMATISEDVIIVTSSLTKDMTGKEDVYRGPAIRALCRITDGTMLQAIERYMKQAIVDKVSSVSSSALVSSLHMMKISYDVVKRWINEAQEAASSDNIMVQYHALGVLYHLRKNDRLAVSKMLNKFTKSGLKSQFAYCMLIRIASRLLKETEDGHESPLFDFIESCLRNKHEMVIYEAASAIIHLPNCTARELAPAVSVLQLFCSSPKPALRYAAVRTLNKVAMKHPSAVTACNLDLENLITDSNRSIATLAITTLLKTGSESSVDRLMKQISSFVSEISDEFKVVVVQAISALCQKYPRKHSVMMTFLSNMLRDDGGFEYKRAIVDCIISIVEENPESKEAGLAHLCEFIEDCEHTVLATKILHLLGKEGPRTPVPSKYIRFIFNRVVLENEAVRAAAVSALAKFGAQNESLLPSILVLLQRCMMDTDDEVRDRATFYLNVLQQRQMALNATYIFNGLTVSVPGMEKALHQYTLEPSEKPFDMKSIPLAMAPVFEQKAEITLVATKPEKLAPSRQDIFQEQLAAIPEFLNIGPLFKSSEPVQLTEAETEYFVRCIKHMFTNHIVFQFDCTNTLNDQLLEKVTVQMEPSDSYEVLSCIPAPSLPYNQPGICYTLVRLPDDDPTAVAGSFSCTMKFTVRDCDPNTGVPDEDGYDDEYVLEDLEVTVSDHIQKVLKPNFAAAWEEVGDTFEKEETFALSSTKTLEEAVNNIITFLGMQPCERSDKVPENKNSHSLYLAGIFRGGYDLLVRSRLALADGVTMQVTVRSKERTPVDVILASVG
UniProt Q08257: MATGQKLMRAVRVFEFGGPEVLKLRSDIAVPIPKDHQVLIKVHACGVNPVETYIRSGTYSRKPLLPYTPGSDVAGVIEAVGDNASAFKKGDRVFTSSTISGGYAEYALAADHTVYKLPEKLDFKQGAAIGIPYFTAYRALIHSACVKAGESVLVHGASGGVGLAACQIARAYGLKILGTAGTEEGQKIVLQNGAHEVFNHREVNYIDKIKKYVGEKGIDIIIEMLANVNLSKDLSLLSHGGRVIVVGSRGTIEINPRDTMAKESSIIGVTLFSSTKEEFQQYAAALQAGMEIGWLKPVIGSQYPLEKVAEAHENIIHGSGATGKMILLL
UniProt Q9BSW2: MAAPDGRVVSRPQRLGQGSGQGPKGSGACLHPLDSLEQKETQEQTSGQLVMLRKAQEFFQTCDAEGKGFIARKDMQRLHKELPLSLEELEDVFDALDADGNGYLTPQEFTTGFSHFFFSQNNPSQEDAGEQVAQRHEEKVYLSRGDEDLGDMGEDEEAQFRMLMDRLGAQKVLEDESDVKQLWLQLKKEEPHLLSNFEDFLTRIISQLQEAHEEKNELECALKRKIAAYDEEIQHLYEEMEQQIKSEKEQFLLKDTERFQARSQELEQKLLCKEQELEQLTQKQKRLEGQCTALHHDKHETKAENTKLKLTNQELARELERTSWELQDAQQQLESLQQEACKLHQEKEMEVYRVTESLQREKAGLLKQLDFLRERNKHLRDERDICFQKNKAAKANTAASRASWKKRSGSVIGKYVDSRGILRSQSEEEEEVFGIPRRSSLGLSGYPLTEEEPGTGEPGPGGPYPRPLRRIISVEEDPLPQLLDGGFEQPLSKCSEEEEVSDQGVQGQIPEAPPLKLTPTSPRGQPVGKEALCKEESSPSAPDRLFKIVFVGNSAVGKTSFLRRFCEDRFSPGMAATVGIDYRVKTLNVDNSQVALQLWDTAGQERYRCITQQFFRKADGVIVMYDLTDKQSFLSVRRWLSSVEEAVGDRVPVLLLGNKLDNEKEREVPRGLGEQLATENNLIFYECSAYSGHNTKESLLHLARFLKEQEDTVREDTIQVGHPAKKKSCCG
UniProt P61923: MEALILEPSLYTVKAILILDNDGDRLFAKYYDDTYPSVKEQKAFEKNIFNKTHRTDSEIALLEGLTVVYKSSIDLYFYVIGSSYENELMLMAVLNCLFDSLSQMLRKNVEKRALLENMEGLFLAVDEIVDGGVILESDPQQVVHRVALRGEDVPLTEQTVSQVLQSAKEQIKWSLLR
UniProt Q86VU5: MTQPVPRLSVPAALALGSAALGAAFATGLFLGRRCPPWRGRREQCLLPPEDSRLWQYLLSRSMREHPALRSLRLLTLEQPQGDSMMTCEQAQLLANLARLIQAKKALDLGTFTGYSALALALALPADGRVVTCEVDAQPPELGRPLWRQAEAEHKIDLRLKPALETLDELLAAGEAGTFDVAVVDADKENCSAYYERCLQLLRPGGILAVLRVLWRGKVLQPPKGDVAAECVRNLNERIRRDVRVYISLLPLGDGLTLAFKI

Tests used:
Test in all cases: log2 fold change, soluble protein after heating vs DMSO (PISA); higher = thermal stabilisation; K562 cells, 10 uM, 30 min; active = over 0.2 and 3.5 SD of the protein, either way, in both replicates (recomputed)
[1] = compound: CC[C@@H]1C(=O)N(C)c2cnc(Nc3ccc(C(=O)NC4CCN(C)CC4)cc3OC)nc2N1C1CCCC1
In short: (§1)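 K562 cells at 2×10^6 cells/mL were treated for 30 min with 10 μM compound, and aliquots were heated for 3 min over 48°C-58°C before pooling. Extraction used PBS with 0.5% NP-40 at 4°C, and soluble protein was the supernatant after 21,000xg for 90 min, measured by TMTpro 16plex LC-MS/MS with channel sums equalised. Thermal stability values, relative to control samples and from duplicates, are log2 fold changes.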

volasertib = compound: CC[C@@H]1C(=O)N(C)c2cnc(Nc3ccc(C(=O)N[C@H]4CC[C@H](N5CCN(CC6CC6)CC5)CC4)cc3OC)nc2N1C(C)C [volasertib]
In short: as §1

[2] = compound: CC[C@H](C)N1C=C(C2=C(C=C(C=C21)C3=CN=C(C=C3)N4CCNCC4)C(=O)NCC5=C(C=C(NC5=O)C)C)C
In short: as §1

epoxomicin = compound: CC[C@H](C)[C@@H](C(=O)N[C@@H]([C@@H](C)O)C(=O)N[C@@H](CC(C)C)C(=O)[C@]1(CO1)C)NC(=O)[C@H]([C@@H](C)CC)N(C)C(=O)C [epoxomicin]
In short: as §1

[3] = compound: CCn1c(C(=O)N(C2CC2)C2CC2)cc2c3c(ncn3C)c(Nc3cc(C)n(C)n3)nc21
In short: as §1

[4] = compound: CCn1cc(-c2ccnc3[nH]c(-c4cccc(CN(C)C)c4)cc23)c(-c2ccc(NC(=O)N(C)C)cc2)n1
In short: as §1

[5] = compound: CN(C)CC(=O)Nc1ccc2[nH]c(=O)c3ccccc3c2c1
In short: as §1

rosiglitazone = compound: CN(CCOC1=CC=C(C=C1)C[C@H]2C(=O)NC(=O)S2)C3=CC=CC=N3 (racemic) [rosiglitazone]
In short: as §1

[6] = compound: CN1C2=C(C3=C1C(=O)N(N=C3)CC4=CC(=CC=C4)N)SC(=C2)S(=O)C
In short: as §1

[7] = compound: CN1CCC(CNc2ccc3ncc(-c4cccc(OC(F)(F)F)c4)n3n2)CC1
In short: as §1

Measured: log2 fold change

CORO1C isoform 3 (UniProt Q9ULV4)
inactive: [1] -0.036 | volasertib -0.213 | [2] 0.019 | epoxomicin 0.043 | [3] -0.043 | [4] -0.051 | [5] -0.026 | rosiglitazone -0.012 | [6] -0.035 | [7] 0.132

CS (UniProt F8VU34)
inactive: [1] -0.093

COMMD10 (UniProt Q9Y6G5)
inactive: [1] 0.022 | volasertib -0.008 | [2] 0.034 | epoxomicin 0.004 | [3] -0.03 | [4] -0.06 | [5] 0.065 | rosiglitazone -0.014 | [6] -0.075 | [7] 0.065

COPS5 (UniProt Q92905)
inactive: [1] -0.021 | volasertib 0.027 | [2] 0.013 | epoxomicin 0.015 | [3] -0.003 | [4] 0.007 | [5] 0.011 | rosiglitazone 0.015 | [6] -0.119 | [7] -0.019

COX10 (UniProt Q12887)
inactive: [1] 0.08 | volasertib 0.072 | [2] 0.181 | epoxomicin 0.026 | [3] -0.024 | [4] 0.335 | [5] -0.092 | rosiglitazone 0.026 | [6] -0.09 | [7] -0.185

CPPED1 (UniProt Q9BRF8)
inactive: [1] 0.009 | volasertib 0.053 | [2] -0.006 | epoxomicin -0.01 | [3] 0.003 | [4] 0.023 | [5] -0.006 | rosiglitazone 0.003 | [6] 0.007 | [7] -0.047

COPB1 (UniProt P53618)
inactive: [1] -0.003 | volasertib -0.172 | [2] 0.018 | epoxomicin 0.018 | [3] -0.046 | [4] -0.035 | [5] 0.025 | rosiglitazone 0.045 | [6] -0.026 | [7] -0.002

COPB2 (UniProt P35606)
inactive: [1] -0.019 | volasertib -0.131 | [2] 0.014 | epoxomicin 0.051 | [3] -0.04 | [4] -0.01 | [5] 0.005 | rosiglitazone 0.019 | [6] -0.028 | [7] 0.008

COX18 (UniProt Q8N8Q8)
inactive: [1] -0.002 | volasertib 0.157 | [2] -0.032 | epoxomicin -0.077 | [3] 0.035 | [4] -0.002 | [5] 0.024 | rosiglitazone -0.038 | [6] 0.006 | [7] -0.126

COPRS (UniProt Q9NQ92)
inactive: [1] 0.019 | volasertib 0.041 | [2] 0.004 | epoxomicin -0.047 | [3] 0.011 | [4] 0.027 | [5] 0.022 | rosiglitazone -0.012 | [6] 0.031 | [7] 0.044

COPA isoform 2 (UniProt P53621)
inactive: [1] -0.021 | volasertib -0.141 | [2] 0.035 | epoxomicin 0.047 | [3] -0.011 | [4] 0 | [5] -0.003 | rosiglitazone 0.005 | [6] -0.032 | [7] -0.03

COQ5 (UniProt Q5HYK3)
inactive: [1] -0.001 | volasertib -0.079 | [2] -0.037 | epoxomicin 0.019 | [3] 0.042 | [4] -0.04 | [5] -0.023 | rosiglitazone -0.008 | [6] -0.037 | [7] -0.152

COQ6 (UniProt Q9Y2Z9)
inactive: [1] -0.019 | volasertib -0.051 | [2] 0.032 | epoxomicin -0.094 | [3] 0.042 | [4] -0.16 | [5] 0.031 | rosiglitazone 0.008 | [6] -0.028 | [7] -0.121

CORO1A (UniProt P31146)
inactive: [1] -0.017 | volasertib -0.172 | [2] 0.069 | epoxomicin 0.009 | [3] -0.006 | [4] -0.025 | [5] 0.021 | rosiglitazone 0.015 | [6] -0.106 | [7] -0.132

CRTAP (UniProt O75718)
inactive: [1] 0.026 | volasertib 0.009 | [2] 0.026 | epoxomicin -0.009 | [3] 0.05 | [4] -0.005 | [5] -0.034 | rosiglitazone 0.006 | [6] 0.11 | [7] 0.106

COX7A2 (UniProt P14406)
inactive: [1] 0.038 | volasertib -0.124 | [2] -0.087 | epoxomicin 0.123 | [3] 0.068 | [4] -0.047 | [5] 0.072 | rosiglitazone -0.032 | [6] 0.059 | [7] 0.091

CORO7 isoform 3 (UniProt P57737)
inactive: [1] -0.026 | volasertib -0.016 | [2] -0.05 | epoxomicin 0.031 | [3] 0.054 | [4] 0.082 | [5] 0.016 | rosiglitazone 0.021 | [6] 0.002 | [7] -0.246

COLGALT1 (UniProt Q8NBJ5)
inactive: [1] 0.059 | volasertib 0.057 | [2] 0.009 | epoxomicin -0.022 | [3] 0.024 | [4] 0.071 | [5] -0.028 | rosiglitazone -0.046 | [6] 0.086 | [7] 0.193

COMMD9 (UniProt Q9P000)
inactive: [1] 0.022 | volasertib -0.242 | [2] -0.015 | epoxomicin 0.147 | [3] 0.056 | [4] 0.015 | [5] -0.031 | rosiglitazone -0.011 | [6] -0.123 | [7] 0.05

COPG2 (UniProt Q9UBF2)
inactive: [1] 0.006 | volasertib -0.122 | [2] 0.022 | epoxomicin -0.027 | [3] -0.022 | [4] -0.021 | [5] 0.009 | rosiglitazone 0.013 | [6] -0.061 | [7] 0.007

COPE (UniProt O14579)
inactive: [1] 0.008 | volasertib -0.013 | [2] 0.017 | epoxomicin -0.023 | [3] -0.028 | [4] 0.018 | [5] 0.008 | rosiglitazone 0.033 | [6] -0.013 | [7] 0.002

CRYZ (UniProt Q08257)
inactive: [1] 0.007 | volasertib 0.027 | [2] -0.02 | epoxomicin 0.005 | [3] 0.013 | [4] 0.011 | [5] 0.007 | rosiglitazone 0.008 | [6] -0.082 | [7] 0.008

CPED1 (UniProt A4D0V7)
inactive: [1] 0.131 | volasertib 0.022 | [2] -0.027 | epoxomicin 0.145 | [3] -0.063 | [4] 0.089 | [5] -0.017 | rosiglitazone 0.062 | [6] 0.21 | [7] 0.088

CPOX (UniProt P36551)
inactive: [1] 0.09 | volasertib 0.077 | [2] -0.025 | epoxomicin -0.033 | [3] 0.076 | [4] -0.063 | [5] 0.038 | rosiglitazone 0.009 | [6] -0.086 | [7] -0.011

CRYZL1 (UniProt O95825)
inactive: [1] 0.021 | volasertib 0.046 | [2] -0.032 | epoxomicin 0.025 | [3] 0.013 | [4] -0.01 | [5] -0.028 | rosiglitazone 0 | [6] -0.04 | [7] -0.035

COMMD5 (UniProt Q9GZQ3)
inactive: [1] -0.046 | volasertib 0.049 | [2] -0.006 | epoxomicin 0.007 | [3] 0.061 | [4] -0.003 | [5] 0.084 | rosiglitazone 0.051 | [6] 0.046 | [7] 0.017

CRACR2A isoform 2 (UniProt Q9BSW2)
inactive: [1] -0.049 | volasertib -0.057 | [2] 0.058 | epoxomicin 0.137 | [3] -0.013 | [4] 0.014 | [5] -0.011 | rosiglitazone 0.042 | [6] -0.016 | [7] 0.025

CREB1 (UniProt P16220)
inactive: [1] 0.008 | volasertib 0.069 | [2] -0.015 | epoxomicin -0.016 | [3] 0.033 | [4] -0.015 | [5] -0.086 | rosiglitazone -0.009 | [6] -0.089 | [7] -0.04

COPZ1 isoform 4 (UniProt P61923)
inactive: [1] -0.029 | volasertib -0.135 | [2] -0.009 | epoxomicin 0.124 | [3] 0.029 | [4] -0.035 | [5] 0.057 | rosiglitazone -0.02 | [6] -0.062 | [7] 0.071

Quoted at random: 2 records from the list
COQ5 (UniProt Q5HYK3)
inactive: [1] -0.001 | volasertib -0.079 | [2] -0.037 | epoxomicin 0.019 | [3] 0.042 | [4] -0.04 | [5] -0.023 | rosiglitazone -0.008 | [6] -0.037 | [7] -0.152

COX7A2 (UniProt P14406)
inactive: [1] 0.038 | volasertib -0.124 | [2] -0.087 | epoxomicin 0.123 | [3] 0.068 | [4] -0.047 | [5] 0.072 | rosiglitazone -0.032 | [6] 0.059 | [7] 0.091

Next part.

COMTD1 (UniProt Q86VU5)
inactive: [1] -0.053 | volasertib -0.018 | [2] 0.004 | epoxomicin -0.074 | [3] -0.08 | [4] -0.045 | [5] 0.031 | rosiglitazone -0.021 | [6] -0.105 | [7] -0.009
